In the supplement of paper PMC6411743:
± gives the standard deviation of the averaged measurements. The list shows a part of the results, in another mix than the full data.

Experiments:
Experiment in all cases: NP40-soluble protein abundance relative to vehicle (solubility fold change) (ratio); higher = more soluble protein in presence of ATP
[1] = biological target: T1, UniProt O95479 and related entries
T1 sequence (whole entry): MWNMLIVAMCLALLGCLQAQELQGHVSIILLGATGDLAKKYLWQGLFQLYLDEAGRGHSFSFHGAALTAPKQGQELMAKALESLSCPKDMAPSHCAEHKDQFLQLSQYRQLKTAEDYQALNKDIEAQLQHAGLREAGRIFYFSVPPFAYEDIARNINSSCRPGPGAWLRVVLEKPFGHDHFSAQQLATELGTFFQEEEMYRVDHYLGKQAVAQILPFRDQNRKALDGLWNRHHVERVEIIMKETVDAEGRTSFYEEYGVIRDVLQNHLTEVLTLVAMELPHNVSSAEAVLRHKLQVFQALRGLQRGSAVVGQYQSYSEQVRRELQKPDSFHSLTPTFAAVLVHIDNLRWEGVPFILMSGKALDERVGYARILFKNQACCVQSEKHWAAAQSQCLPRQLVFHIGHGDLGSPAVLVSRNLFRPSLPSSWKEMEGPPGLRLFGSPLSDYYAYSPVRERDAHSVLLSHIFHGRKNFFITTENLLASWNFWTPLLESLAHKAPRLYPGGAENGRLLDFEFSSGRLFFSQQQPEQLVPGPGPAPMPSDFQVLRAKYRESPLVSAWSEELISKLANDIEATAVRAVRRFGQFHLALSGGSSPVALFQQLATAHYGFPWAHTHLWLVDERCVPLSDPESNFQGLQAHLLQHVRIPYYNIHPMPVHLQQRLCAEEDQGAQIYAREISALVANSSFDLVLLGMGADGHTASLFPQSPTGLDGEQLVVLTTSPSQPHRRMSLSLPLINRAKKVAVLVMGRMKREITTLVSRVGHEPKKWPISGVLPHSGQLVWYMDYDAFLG
Method in brief: (§1)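 Data come from three independent experiments in which Dounce-homogenised Jurkat crude lysate was treated at eight concentrations from 0.1 to 10 mM. Treatment ran 10 min at room temperature and then 3 min at 37 °C, after which 0.8% NP40 and benzonase were added for 60 min at 4 °C before ultracentrifugation. The supernatant underwent TMT labelling and LC-MS/MS, and vsn-normalised intensities were expressed as fold change against the detergent-processed vehicle in each replicate.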

[2] = biological target: T2, UniProt O95487 and related entries
T2 sequence (whole entry): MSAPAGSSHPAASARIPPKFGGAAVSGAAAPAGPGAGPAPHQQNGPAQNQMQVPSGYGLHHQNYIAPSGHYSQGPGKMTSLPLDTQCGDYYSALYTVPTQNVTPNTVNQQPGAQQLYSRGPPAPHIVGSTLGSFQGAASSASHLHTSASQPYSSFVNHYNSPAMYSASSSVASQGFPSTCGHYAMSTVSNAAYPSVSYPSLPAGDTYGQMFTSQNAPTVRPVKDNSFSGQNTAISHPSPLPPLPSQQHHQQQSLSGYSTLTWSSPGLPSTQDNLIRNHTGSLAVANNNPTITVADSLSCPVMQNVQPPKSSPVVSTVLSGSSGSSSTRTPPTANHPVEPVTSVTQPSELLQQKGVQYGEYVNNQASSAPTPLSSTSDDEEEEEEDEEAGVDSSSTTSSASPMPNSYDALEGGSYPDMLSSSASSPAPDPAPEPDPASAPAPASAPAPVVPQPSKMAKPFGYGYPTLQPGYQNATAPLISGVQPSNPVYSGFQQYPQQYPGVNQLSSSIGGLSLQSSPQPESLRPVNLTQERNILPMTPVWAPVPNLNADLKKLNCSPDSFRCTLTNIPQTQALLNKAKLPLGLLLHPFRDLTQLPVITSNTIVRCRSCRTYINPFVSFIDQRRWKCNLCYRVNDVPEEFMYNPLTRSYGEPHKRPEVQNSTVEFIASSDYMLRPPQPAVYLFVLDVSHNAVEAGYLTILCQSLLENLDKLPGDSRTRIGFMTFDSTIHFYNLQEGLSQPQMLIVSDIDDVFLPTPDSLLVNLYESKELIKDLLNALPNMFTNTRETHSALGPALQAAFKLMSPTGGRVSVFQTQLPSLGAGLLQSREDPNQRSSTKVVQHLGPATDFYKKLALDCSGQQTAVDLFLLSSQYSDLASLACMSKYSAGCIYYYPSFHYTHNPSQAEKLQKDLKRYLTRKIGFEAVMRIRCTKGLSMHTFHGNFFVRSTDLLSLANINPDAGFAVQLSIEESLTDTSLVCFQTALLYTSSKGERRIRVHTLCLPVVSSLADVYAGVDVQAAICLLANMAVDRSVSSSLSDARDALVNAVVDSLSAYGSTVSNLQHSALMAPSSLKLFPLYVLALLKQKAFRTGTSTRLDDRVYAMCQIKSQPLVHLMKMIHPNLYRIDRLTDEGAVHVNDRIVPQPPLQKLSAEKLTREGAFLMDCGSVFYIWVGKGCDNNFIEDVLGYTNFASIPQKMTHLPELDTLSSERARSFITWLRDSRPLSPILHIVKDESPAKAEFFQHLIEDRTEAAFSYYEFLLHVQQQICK
Method in brief: as §1

UniProt O95684-2 = biological target: T3, UniProt O95684-2
T3 sequence (whole entry): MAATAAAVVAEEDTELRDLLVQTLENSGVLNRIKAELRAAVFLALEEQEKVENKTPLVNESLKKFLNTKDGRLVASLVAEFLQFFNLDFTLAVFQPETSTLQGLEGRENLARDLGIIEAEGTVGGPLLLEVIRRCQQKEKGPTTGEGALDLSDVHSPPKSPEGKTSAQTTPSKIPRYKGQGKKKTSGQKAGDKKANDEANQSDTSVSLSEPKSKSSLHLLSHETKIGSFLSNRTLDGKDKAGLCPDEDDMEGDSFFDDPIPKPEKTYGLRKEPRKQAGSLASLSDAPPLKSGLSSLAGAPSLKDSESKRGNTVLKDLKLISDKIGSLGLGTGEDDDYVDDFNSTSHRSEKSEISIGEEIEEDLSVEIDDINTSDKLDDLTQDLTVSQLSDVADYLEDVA
Method in brief: as §1

UniProt O95777 = biological target: T4, UniProt O95777
T4 sequence (whole entry): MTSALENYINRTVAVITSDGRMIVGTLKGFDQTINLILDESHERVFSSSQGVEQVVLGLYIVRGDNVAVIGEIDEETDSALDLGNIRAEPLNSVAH
Method in brief: as §1

VAMP5 = biological target: T5, VAMP5 (UniProt O95183)
T5 sequence (whole entry): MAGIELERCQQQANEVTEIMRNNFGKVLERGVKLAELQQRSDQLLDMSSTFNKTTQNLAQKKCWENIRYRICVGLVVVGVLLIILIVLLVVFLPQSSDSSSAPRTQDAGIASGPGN
Method in brief: as §1

Nc1ncnc2c1ncn2[C@@H]1O[C@H](COP(=O)(O)OP(=O)(O)OP(=O)(O)O)[C@@H](O)[C@H]1O [adenosine triphosphate]
NP40-soluble protein abundance ([1]; concentration: 6mM): 0.99 ± 0.13
NP40-soluble protein abundance ([1]; concentration: 8mM): 1.01 ± 0.033
NP40-soluble protein abundance ([1]; concentration: 10mM): 0.987 ± 0.031
NP40-soluble protein abundance ([2]; concentration: 1mM): 1.07 ± 0.023
NP40-soluble protein abundance ([2]; concentration: 2mM): 1.07 ± 0.01
NP40-soluble protein abundance ([2]; concentration: 4mM): 1.1 ± 0.047
NP40-soluble protein abundance ([2]; concentration: 6mM): 1.04 ± 0.042
NP40-soluble protein abundance ([2]; concentration: 8mM): 1.07 ± 0.039
NP40-soluble protein abundance ([2]; concentration: 10mM): 1.08 ± 0.037
NP40-soluble protein abundance (UniProt O95684-2; concentration: 1mM): 0.91 ± 0.059
NP40-soluble protein abundance (UniProt O95684-2; concentration: 2mM): 0.936 ± 0.012
NP40-soluble protein abundance (UniProt O95684-2; concentration: 4mM): 0.921 ± 0.025
NP40-soluble protein abundance (UniProt O95684-2; concentration: 6mM): 0.958 ± 0.052
NP40-soluble protein abundance (UniProt O95684-2; concentration: 8mM): 0.9035 ± 0.0049
NP40-soluble protein abundance (UniProt O95684-2; concentration: 10mM): 0.887 ± 0.056
NP40-soluble protein abundance (UniProt O95777; concentration: 1mM): 1.08 ± 0.021
NP40-soluble protein abundance (UniProt O95777; concentration: 2mM): 1.05 ± 0.067
NP40-soluble protein abundance (UniProt O95777; concentration: 4mM): 1.03 ± 0.032
NP40-soluble protein abundance (UniProt O95777; concentration: 6mM): 1.01 ± 0.088
NP40-soluble protein abundance (UniProt O95777; concentration: 8mM): 1.02 ± 0.036
NP40-soluble protein abundance (UniProt O95777; concentration: 10mM): 1 ± 0.036
NP40-soluble protein abundance (VAMP5; concentration: 1mM): 0.953 ± 0.052
NP40-soluble protein abundance (VAMP5; concentration: 2mM): 0.93 ± 0.045
NP40-soluble protein abundance (VAMP5; concentration: 4mM): 0.981 ± 0.029
NP40-soluble protein abundance (VAMP5; concentration: 6mM): 1.04 ± 0.052
NP40-soluble protein abundance (VAMP5; concentration: 8mM): 0.934 ± 0.04
NP40-soluble protein abundance (VAMP5; concentration: 10mM): 0.863 ± 0.1
